Data published in publication PMC8501101.
These are yes or no findings as the source states them, for the method shown. Binding seen in cells or lysates may run through a third protein. Some binding calls cover weakened binding; strength is not graded here.

Chains of the proteins cited; added tags and fusions are not shown. Lines headed by an entry give the natural chain unless they say otherwise; changes in a name come on top. Residues count along the entry.
UniProt Q08211, residues 1-380: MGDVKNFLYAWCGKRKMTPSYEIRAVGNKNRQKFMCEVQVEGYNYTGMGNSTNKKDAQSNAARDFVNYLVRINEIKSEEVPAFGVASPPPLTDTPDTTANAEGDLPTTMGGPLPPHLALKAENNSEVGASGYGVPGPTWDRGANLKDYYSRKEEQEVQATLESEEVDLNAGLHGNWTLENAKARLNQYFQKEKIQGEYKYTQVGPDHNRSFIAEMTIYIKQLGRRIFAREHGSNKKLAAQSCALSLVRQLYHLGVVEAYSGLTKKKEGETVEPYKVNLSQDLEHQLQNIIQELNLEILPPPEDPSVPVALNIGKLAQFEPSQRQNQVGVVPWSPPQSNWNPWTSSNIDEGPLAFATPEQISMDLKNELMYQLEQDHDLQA
3×flag-labeled wild-type ITSN1-S (intersectin1 short isoform) (Q15811, residues 1-1220): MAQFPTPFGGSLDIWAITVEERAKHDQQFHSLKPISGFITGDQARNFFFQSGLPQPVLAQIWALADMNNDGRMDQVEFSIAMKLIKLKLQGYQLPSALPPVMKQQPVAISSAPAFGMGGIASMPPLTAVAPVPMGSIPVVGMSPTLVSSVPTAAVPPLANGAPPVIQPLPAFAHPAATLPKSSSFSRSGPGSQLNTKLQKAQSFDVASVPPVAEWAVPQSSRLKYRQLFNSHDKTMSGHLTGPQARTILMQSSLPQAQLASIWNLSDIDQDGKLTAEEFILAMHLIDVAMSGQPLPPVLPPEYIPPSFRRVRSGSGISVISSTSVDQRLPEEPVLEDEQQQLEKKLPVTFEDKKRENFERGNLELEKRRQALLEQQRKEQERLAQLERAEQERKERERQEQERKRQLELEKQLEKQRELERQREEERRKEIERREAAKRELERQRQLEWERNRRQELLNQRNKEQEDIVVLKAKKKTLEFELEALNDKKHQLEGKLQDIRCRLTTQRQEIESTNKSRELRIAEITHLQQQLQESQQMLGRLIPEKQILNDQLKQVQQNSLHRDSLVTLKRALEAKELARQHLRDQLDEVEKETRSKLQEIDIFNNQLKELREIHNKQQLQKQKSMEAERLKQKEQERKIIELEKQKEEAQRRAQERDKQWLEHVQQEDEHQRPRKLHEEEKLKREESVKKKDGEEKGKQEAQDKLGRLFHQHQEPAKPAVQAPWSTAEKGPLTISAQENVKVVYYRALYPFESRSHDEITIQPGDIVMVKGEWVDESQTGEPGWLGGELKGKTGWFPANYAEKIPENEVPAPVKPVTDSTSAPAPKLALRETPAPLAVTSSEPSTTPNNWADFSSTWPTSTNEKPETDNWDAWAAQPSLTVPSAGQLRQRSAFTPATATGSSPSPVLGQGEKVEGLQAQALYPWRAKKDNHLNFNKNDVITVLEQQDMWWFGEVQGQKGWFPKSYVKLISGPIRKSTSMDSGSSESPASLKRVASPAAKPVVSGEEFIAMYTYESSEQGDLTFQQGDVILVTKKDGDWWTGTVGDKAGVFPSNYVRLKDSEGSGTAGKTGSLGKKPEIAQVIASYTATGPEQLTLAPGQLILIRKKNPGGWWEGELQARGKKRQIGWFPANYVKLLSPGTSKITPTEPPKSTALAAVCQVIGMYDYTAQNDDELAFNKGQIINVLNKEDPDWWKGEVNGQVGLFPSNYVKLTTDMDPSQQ
ITSN1-S-EH1,2 (1–325 aa), HA and 3×flag-labeled (Q15811, residues 1-325): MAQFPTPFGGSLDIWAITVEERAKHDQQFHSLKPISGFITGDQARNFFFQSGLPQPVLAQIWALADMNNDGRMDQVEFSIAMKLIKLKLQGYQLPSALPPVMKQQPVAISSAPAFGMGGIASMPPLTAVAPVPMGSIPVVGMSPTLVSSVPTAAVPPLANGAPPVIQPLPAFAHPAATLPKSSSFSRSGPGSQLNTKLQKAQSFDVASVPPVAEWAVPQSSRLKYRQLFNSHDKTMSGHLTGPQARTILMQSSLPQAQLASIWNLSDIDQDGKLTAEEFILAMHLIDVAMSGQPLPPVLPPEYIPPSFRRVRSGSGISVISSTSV
UniProt O00443: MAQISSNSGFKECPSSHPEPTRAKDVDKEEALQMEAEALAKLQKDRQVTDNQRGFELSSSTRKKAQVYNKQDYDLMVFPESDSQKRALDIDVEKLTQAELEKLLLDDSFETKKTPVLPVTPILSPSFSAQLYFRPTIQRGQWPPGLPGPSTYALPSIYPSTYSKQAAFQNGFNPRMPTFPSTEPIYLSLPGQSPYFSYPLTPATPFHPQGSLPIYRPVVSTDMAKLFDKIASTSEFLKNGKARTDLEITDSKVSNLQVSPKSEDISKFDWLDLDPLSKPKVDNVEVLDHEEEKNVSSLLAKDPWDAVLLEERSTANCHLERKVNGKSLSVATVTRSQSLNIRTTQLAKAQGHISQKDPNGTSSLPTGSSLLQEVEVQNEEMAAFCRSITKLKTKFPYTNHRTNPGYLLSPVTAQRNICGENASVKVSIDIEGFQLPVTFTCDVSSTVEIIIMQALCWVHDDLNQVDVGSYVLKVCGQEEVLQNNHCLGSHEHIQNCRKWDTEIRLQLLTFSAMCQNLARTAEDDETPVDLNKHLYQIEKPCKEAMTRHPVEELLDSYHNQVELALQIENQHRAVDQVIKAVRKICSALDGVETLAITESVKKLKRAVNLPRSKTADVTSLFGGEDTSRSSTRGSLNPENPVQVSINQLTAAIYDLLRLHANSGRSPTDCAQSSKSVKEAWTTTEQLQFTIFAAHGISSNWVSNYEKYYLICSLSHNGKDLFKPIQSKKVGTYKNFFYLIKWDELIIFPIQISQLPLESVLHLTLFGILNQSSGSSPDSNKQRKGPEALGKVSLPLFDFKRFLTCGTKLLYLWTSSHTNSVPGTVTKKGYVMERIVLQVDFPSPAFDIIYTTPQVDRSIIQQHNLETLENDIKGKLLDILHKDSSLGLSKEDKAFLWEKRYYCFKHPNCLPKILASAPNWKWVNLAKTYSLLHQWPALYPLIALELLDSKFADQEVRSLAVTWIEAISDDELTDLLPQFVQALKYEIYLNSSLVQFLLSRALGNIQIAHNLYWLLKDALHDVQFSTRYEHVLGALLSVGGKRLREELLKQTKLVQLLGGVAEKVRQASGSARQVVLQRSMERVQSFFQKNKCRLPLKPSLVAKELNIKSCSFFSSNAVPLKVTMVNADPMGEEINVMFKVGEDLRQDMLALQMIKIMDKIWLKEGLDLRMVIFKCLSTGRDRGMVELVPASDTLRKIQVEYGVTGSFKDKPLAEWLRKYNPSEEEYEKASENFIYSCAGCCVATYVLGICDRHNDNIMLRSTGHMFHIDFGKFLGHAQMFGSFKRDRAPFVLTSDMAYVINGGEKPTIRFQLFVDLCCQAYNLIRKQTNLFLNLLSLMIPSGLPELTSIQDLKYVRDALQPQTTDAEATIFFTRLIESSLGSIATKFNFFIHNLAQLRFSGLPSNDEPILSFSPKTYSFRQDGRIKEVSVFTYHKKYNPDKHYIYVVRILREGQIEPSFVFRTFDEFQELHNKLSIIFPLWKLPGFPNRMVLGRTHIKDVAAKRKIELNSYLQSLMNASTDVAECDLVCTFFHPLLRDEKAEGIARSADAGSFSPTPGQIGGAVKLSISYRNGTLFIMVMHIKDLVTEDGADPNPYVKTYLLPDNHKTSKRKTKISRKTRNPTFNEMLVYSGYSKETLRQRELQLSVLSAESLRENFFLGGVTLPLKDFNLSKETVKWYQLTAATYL

What was measured:
[1] = molecular target: NDH II-NT (1–380 aa), HA and 3×flag-labeled (UniProt Q08211); test: co-IP; 3×flag and HA-labeled fragments of ITSN1-S or NDH II expressed in HEK-293T; cellular extracts, IP with anti-flag M2 affinity gel; Western blot for ITSN1-S, NDH II or PI3KC2α
[2] = molecular target: ITSN1-S-EH1,2 (1–325 aa), HA and 3×flag-labeled (human) (UniProt Q15811); test: as above
[3] = molecular target: 3×flag-labeled wild-type ITSN1-S (intersectin1 short isoform) (human) (UniProt Q15811); test: co-IP; IP from cell lysates with anti-flag M2 affinity gel (flag-tagged ITSN1-S), and for NDH II also with antibodies against NDH II or control IgG; Western blot

With “ITSN1-S (endogenous, HEK-293T) (from UniProt Q15811-2 1-1220)” the binding [1] was “binds”.

For PI3KC2α (from UniProt O00443 1-1686), the binding [2] was “binds” and the binding [3] was “binds”.
